Test results taken from patent US20260098089A1.
No constants are given. Whether binding was seen depends on the method and setting. Some binding calls cover weakened binding; strength is not graded here.

Amino acid sequences for entries named in this document (tags omitted). A change or cut given only in a name is not applied to a line headed by its entry.
UniProt P09564: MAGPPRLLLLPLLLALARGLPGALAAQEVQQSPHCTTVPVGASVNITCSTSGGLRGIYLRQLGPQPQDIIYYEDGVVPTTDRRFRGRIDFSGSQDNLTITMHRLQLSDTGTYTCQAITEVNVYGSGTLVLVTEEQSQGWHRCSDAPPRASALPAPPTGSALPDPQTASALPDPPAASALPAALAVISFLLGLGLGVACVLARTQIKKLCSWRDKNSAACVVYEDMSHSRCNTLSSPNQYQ

Legend:
[1] = target: Human CD7 protein (soluble) (human) (UniProt P09564); test: SPR
[2] = target: Human CD7 protein (soluble) (human) (UniProt P09564); test: SPR, soluble CD7
[3] = target: Human CD7 protein (soluble) (human) (UniProt P09564); test: SPR, mAb captured, single concentration of human CD7 protein as analyte (concentration not given)

Measured: binding

B1: 1741G09 (antibody, V domains shown)
VH: EVQLVESGGGLVKPGGSLRLSCAASGFSFSVAWMSWVRQAPGKGLEWVGRIKRKTDGGTTDYAAPVKGRFIISRDDSIKALYLQMNSLKTEDTAVYYCTTDPLLRYSDWLSHSLMGDVWGQGTTVTVSS
VL: DIQMTQSPSSLSASVGDRVAITCRTSQNINNYLNWYQQKPGKAPKPLIYAASSLQSGVPSRFSGSGSGTDFTLTISTLHPEDFATYYCQQTYSIPLTFGGGTKVEIK
binds: [1] | [2] | [3]
